Measured values published in patent US20080275040A1, “8-(1-Piperazinyl)-Quinoline Derivatives and Their Use in the Treatment of Cns Disorders” (GLAXO GROUP LIMITED, priority 2003, published 2008).
Some entries share one result that the patent states for a list of compounds.

Sequences of proteins named here, by UniProt entry; tags and fusion partners are left off.
UniProt P50406, whole entry: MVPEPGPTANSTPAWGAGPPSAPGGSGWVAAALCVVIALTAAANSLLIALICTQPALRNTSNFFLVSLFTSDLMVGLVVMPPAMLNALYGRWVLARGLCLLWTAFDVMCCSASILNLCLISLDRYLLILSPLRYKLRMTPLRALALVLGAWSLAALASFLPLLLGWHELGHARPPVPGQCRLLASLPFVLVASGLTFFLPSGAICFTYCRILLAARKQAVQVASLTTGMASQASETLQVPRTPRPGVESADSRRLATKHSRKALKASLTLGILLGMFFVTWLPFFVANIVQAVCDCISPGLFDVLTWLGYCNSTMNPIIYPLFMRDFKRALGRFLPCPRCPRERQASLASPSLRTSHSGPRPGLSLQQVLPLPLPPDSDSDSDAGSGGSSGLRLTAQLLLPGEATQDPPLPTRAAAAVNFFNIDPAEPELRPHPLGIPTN

Biological target: human cloned 5-HT6 receptors (Homo sapiens, UniProt P50406)
Assay: 5-HT6 receptor affinity (procedures outlined in WO98/27081)
Type: binding

Structure (SMILES): Cl.O=S(=O)(c1cnc2c(N3CCNCC3)cccc2c1)N1CCc2ccccc21 [Example E1, 3-(2,3-Dihydro-1H-indol-1-ylsulfonyl)-8-(1-piperazinyl)quinoline hydrochloride]
- pKi values at human cloned 5-HT6 receptors: ≥ 7.5

Structure (SMILES): Cl.O=S(=O)(c1cnc2c(N3CCNCC3)cccc2c1)N1Cc2ccc(F)cc2C1 [Example E2, 3-[(5-Fluoro-2,3-dihydro-1H-isoindol-2-yl)sulfonyl]-8-(1-piperazinyl)quinoline hydrochloride]
- pKi values at human cloned 5-HT6 receptors: ≥ 7.5

Structure (SMILES): Cl.O=S(=O)(c1cnc2c(N3CCNCC3)cccc2c1)N1CCCCC1 [Example E3, 8-(1-piperazinyl)-3-(1-piperidinylsulfonyl)quinoline hydrochloride]
- pKi values at human cloned 5-HT6 receptors: ≥ 7.5

Structure (SMILES): Cl.O=S(=O)(c1cnc2c(N3CCNCC3)cccc2c1)N1CCOCC1 [Example E4, 3-(Morpholin-4-ylsulfonyl)-8-(1-piperazinyl)quinoline hydrochloride]
- pKi values at human cloned 5-HT6 receptors: ≥ 7.5

Structure (SMILES): CN1CCN(c2cccc3cc(S(=O)(=O)N4CCc5ccccc54)cnc23)CC1.Cl [Example E5, 3-(2,3-Dihydro-1H-indol-1-ylsulfonyl)-8-(4-methyl-1-piperazinyl)quinoline hydrochloride]
- pKi values at human cloned 5-HT6 receptors: ≥ 7.5
